Experimental data taken from article PMC5065530.
No constants are given. Whether binding was seen depends on the method and setting. In cells and extracts the contact can be indirect. Some entries that bind do so weakly or less than the wild type. Tags and fused reporters may be left off the sequences shown.

Target: T1, Flag-HA-tagged WT 53BP1 (p53-binding protein 1), Q12888
T1 chain: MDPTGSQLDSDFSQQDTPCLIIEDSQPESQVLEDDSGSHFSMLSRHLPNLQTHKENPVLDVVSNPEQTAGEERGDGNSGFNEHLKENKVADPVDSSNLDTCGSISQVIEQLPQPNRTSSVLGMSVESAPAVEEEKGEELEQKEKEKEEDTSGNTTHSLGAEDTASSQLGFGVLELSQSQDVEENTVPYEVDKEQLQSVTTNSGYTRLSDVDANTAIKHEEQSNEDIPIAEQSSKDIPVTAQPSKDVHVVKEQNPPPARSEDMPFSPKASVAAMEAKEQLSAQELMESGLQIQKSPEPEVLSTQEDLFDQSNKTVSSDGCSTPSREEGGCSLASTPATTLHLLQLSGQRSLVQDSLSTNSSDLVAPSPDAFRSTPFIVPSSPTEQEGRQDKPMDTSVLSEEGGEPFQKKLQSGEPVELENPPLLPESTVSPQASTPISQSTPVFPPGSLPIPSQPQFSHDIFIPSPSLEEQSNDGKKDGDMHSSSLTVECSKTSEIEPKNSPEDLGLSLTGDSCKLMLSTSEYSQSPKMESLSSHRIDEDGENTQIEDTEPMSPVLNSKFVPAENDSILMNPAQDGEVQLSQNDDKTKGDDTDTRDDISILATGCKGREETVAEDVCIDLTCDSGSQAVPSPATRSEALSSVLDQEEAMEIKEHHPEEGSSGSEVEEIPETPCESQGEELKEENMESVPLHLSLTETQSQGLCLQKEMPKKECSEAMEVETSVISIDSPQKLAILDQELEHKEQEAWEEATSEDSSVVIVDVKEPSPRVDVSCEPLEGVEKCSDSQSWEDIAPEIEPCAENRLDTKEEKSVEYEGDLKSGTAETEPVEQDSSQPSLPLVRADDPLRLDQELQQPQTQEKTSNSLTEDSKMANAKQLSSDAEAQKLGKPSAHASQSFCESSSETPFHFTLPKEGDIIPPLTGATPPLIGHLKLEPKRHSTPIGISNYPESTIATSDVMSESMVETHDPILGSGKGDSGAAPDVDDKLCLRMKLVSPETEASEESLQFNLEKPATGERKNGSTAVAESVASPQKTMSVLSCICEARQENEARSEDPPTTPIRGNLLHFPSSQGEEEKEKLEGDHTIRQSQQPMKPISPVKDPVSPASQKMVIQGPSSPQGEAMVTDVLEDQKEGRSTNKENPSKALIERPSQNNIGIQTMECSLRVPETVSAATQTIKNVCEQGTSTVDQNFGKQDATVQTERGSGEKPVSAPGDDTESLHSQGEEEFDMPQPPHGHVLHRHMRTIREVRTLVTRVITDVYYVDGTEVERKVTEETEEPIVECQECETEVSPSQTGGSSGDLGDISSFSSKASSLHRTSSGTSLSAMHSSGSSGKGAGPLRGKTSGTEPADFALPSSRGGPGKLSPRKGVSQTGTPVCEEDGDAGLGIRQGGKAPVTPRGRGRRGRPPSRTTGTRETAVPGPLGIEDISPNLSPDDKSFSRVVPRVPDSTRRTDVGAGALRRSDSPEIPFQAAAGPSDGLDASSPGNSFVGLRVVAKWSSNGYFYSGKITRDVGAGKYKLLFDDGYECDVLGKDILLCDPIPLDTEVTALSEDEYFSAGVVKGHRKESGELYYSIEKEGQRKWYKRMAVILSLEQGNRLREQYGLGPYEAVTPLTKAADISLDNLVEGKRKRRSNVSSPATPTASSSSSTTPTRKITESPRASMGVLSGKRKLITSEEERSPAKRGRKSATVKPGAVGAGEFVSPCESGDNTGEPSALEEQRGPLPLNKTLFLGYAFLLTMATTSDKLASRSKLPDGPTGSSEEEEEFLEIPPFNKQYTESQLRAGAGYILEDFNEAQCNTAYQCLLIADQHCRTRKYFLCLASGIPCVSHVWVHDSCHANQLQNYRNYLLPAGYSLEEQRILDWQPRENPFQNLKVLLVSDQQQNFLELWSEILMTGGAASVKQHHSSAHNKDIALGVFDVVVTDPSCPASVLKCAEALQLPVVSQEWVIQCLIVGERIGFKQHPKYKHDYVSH
Experiment: co-IP; Flag-HA-53BP1 complexes purified on anti-FLAG M2 magnetic resin from 1-2 mg dialysed lysate (20 mM HEPES pH 7.9, 100 mM KCl) of N3-treated stably complemented 53BP1Δ MCF-7 lines; interacting proteins by immunoblotting
Settings: remark: other sources report otherwise

binding: binds
B1: Ubiquitin Specific Protease USP28, Q96RU2 1-1077 (enzyme)
chain: MTAELQQDDAAGAADGHGSSCQMLLNQLREITGIQDPSFLHEALKASNGDITQAVSLLTDERVKEPSQDTVATEPSEVEGSAANKEVLAKVIDLTHDNKDDLQAAIALSLLESPKIQADGRDLNRMHEATSAETKRSKRKRCEVWGENPNPNDWRRVDGWPVGLKNVGNTCWFSAVIQSLFQLPEFRRLVLSYSLPQNVLENCRSHTEKRNIMFMQELQYLFALMMGSNRKFVDPSAALDLLKGAFRSSEEQQQDVSEFTHKLLDWLEDAFQLAVNVNSPRNKSENPMVQLFYGTFLTEGVREGKPFCNNETFGQYPLQVNGYRNLDECLEGAMVEGDVELLPSDHSVKYGQERWFTKLPPVLTFELSRFEFNQSLGQPEKIHNKLEFPQIIYMDRYMYRSKELIRNKRECIRKLKEEIKILQQKLERYVKYGSGPARFPLPDMLKYVIEFASTKPASESCPPESDTHMTLPLSSVHCSVSDQTSKESTSTESSSQDVESTFSSPEDSLPKSKPLTSSRSSMEMPSQPAPRTVTDEEINFVKTCLQRWRSEIEQDIQDLKTCIASTTQTIEQMYCDPLLRQVPYRLHAVLVHEGQANAGHYWAYIYNQPRQSWLKYNDISVTESSWEEVERDSYGGLRNVSAYCLMYINDKLPYFNAEAAPTESDQMSEVEALSVELKHYIQEDNWRFEQEVEEWEEEQSCKIPQMESSTNSSSQDYSTSQEPSVASSHGVRCLSSEHAVIVKEQTAQAIANTARAYEKSGVEAALSEVMLSPAMQGVILAIAKARQTFDRDGSEAGLIKAFHEEYSRLYQLAKETPTSHSDPRLQHVLVYFFQNEAPKRVVERTLLEQFADKNLSYDERSISIMKVAQAKLKEIGPDDMNMEEYKKWHEDYSLFRKVSVYLLTGLELYQKGKYQEALSYLVYAYQSNAALLMKGPRRGVKESVIALYRRKCLLELNAKAASLFETNDDHSVTEGINVMNELIIPCIHLIINNDISKDDLDAIEVMRNHWCSYLGQDIAENLQLCLGEFLPRLLDPSAEIIVLKEPPTIRPNSPYDLCSRFAAVMESIQGVSTVTVK
